# From PubChem BioAssay AID1347076 (National Center for Advancing Translational Sciences (NCATS), 2019)
# About 13,000 (3.2%) of roughly 400,000 compounds were called active. The inconclusive results got no clear call from the source; some entries with a clear call stand among them for comparison. Calls follow the shape of the dose curve; as a rule, active = well fitted cell-killing curve with a large enough effect; inconclusive = small, poorly fitted or top-dose-only effect, or effect the other way; inactive = flat fitted curve, though single readings scatter. A potency beside an inconclusive call is a rough fit, not a confirmed value.
# Experiment: qHTS assay for MDR1-selective chemotherapeutics: Primary screen using the drug-selected MDR subline cells KB-V1; also: nearly all actives have a fitted effect of over 60% in size
# Conditions: KB-V1 MDR cells viability, CellTiter-Glo, 72 h; activity change, negative = cytotoxicity: at 46.1 µM (top of the series)
# Method in brief: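 KB-V1 MDR subline cells in DMEM (phenol-red free, 10% FBS) exposed to compounds in qHTS concentration series for 72 h at 37 degrees C. Viability read by CellTiter-Glo luminescence; concentration-effect curves fitted after normalization and correction.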
# % is scaled to controls: 0 for no effect and ±100 for the full control effect; potency is read from the fitted curve at half-maximal effect.
Compound,Potency,"activity change, negative = cytotoxicity"
O=C1CCCc2c1[nH]c1ccc(CN3CCCCC3)cc21,"inconclusive: 10.3 µM [cytotoxic, partial curve, poor fit]",
CCN1CCN(C(=O)c2ccc(CN(c3ccc(C)c(C)c3)S(C)(=O)=O)cc2)CC1,,inactive: -5.68%
NC(N)=N/N=C/c1ccc(Br)cc1,"inconclusive: 2.59 µM [cytotoxic, full curve]",
O=C(NNc1nc2ccccc2s1)c1ccc(F)cc1,"inconclusive: 29.1 µM [cytotoxic, single point]",
CC(C)(C#N)Cc1cc(CC(C)(C)C#N)cc(C(C)(C)C)c1,,inactive: 11.6%
COc1ccc(N(CC(=O)NC2CCCC2)C(=O)Cn2nnc(-c3ccc(C)cc3)n2)cc1,active: 16.4 µM,
COc1ccc2c(C)cc(N3CCN(c4ccc(F)cc4)CC3)nc2c1,"inconclusive: 9.2 µM [cytotoxic, partial curve, poor fit]",
CCc1ccc([C@@H]2C[C@H]3[C@@H](CN2S(=O)(=O)c2ccc(C)cc2)C(=O)C[C@@H](c2cccc(Cl)c2)N3S(=O)(=O)c2ccc(C)cc2)cc1,"inconclusive: 1.16 µM [rising, partial curve, poor fit]",
O=C(CCCCCNC(=O)N1CCn2c1nc1ccccc12)NCc1ccccc1,"inconclusive: 29.1 µM [cytotoxic, single point]",
CC(Sc1nnc(CN2CCCC2)n1Cc1ccccc1)C(=O)Nc1ccc(F)cc1Cl (stereo not drawn),,inactive: -7.46%
COc1ccc(OC)c(S(=O)(=O)NCc2cccn2Cc2cccc(C)c2)c1,"inconclusive: 29.1 µM [cytotoxic, single point]",
Clc1ccc(OCCN2CCN(c3ncnc4sccc34)CC2)cc1,active: 2.91 µM,
COc1ccc(CC(=O)Nc2cccc(-c3nnc(-c4cccc(C)c4)o3)c2)cc1OC,"inconclusive: 20.6 µM [cytotoxic, single point]",
CCCn1nc(C(=O)NNC(=O)c2ccc(C)c(C)c2)c2ccccc2c1=O,"inconclusive: 8.2 µM [cytotoxic, partial curve]",
COc1ccccc1-c1cc(C(=O)Nc2ccccc2C(F)(F)F)no1,"inconclusive: 4.11 µM [rising, full curve, poor fit]",
COc1ccc(CNC(=O)COC(=O)c2ccc(S(=O)(=O)N3CCOCC3)cc2)cc1,,inactive: 0%
[2H]C(CCOS(N)(=O)=O)c1ccccc1 (stereo not drawn),"inconclusive: 32.6 µM [cytotoxic, single point]",
COc1cc(C(=O)Oc2ccccc2/C=N/NC(=O)c2ccc(Cl)cc2)cc(OC)c1OC,"inconclusive: 1.84 µM [cytotoxic, full curve]",

# 3 entries already listed, sorted by count of non-hydrogen atoms, rising.
Compound,Potency,"activity change, negative = cytotoxicity"
COc1ccc2c(C)cc(N3CCN(c4ccc(F)cc4)CC3)nc2c1,"inconclusive: 9.2 µM [cytotoxic, partial curve, poor fit]",
COc1ccc(OC)c(S(=O)(=O)NCc2cccn2Cc2cccc(C)c2)c1,"inconclusive: 29.1 µM [cytotoxic, single point]",
COc1ccc(N(CC(=O)NC2CCCC2)C(=O)Cn2nnc(-c3ccc(C)cc3)n2)cc1,active: 16.4 µM,
